Results published in the supplement of paper PMC8256030.
Values joined by “and” are separate entries in the source; they are usually repeats but may differ in a detail not shown here. Identical values can stand only once. This is one part of the list. This data set is noisy: repeats of one test often differ as much as different tests do.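 HEK293T cells were given each compound shortly before transfection with a reporter in which red mCherry is followed by the SARS-CoV-2 frameshift element and then GFP in the −1 frame, so GFP appears only after frameshifting.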

Tested on: HEK293T
Assay: percent viability (nuclei count) relative to control; higher = more viable cells
Conditions: 10 µM; 24 h

Structure (SMILES) | percent viability
CN(C(=O)C(Cl)Cl)c1ccc(OC(=O)c2ccco2)cc1 | 310%
CCOc1ccc(Cc2cc([C@@H]3O[C@H](CO)[C@@H](O)[C@H](O)[C@H]3O)ccc2Cl)cc1 [Dapagliflozin] | 298%
Nc1ncnc2c1ncn2[C@@H]1O[C@H](COP(=O)(O)OP(=O)(O)OP(=O)(O)O)[C@@H](O)[C@H]1O [Adephos] | 264%
CCC(=O)O[C@H]1[C@H](O[C@@H]2[C@@H](C)[C@H](O[C@H]3C[C@@](C)(OC)[C@@H](O)[C@H](C)O3)[C@@H](C)C(=O)O[C@H](CC)[C@@](C)(O)[C@H](O)[C@@H](C)C(=O)[C@H](C)C[C@@]2(C)O)O[C@H](C)C[C@@H]1N(C)C | 283%
CCCc1c2oc(C(=O)O)cc(=O)c2cc2c(=O)cc(C(=O)O)n(CC)c12 [nedocromil] | 254%
CCCC(=O)O[C@]1(C(=O)CO)CC[C@H]2[C@@H]3CCC4=CC(=O)CC[C@]4(C)[C@H]3[C@@H](O)C[C@@]21C | 326%
O=C(NCC1CCCCN1)c1cc(OCC(F)(F)F)ccc1OCC(F)(F)F (stereo not given) [flecainide] | 226%
O=C(/C=C/c1ccc(CN(CCO)CCc2c[nH]c3ccccc23)cc1)NO [dacinostat] | 6.4%
COc1c2ccoc2cc2oc(CO[C@@H]3O[C@H](CO)[C@@H](O)[C@H](O)[C@H]3O)cc(=O)c12 [khelloside] | 106%
COC(=O)Nc1nc2cc(C(=O)c3cccs3)ccc2[nH]1 [nocodazole] | 13.1%
CC[N+](CC)(CC)CCOC(=O)c1cc(OC)c(OC)c(OC)c1 [troxonium tosilate] | 92.1%
C[C@@H]1C[C@H]2[C@@H]3CCC4=CC(=O)C=C[C@]4(C)[C@@]3(F)[C@@H](O)C[C@]2(C)[C@@]1(O)C(=O)CO [dexamethasone] | 213% and 184%
COc1cc(C(=O)OCCCN2CCCN(CCCOC(=O)c3cc(OC)c(OC)c(OC)c3)CC2)cc(OC)c1OC [dilazep] | 154%
NC[C@H]1O[C@H](O[C@H]2[C@H](O[C@@H]3O[C@H](CO)[C@@H](O)[C@H]3O)[C@@H](O)[C@H](N)C[C@@H]2N)[C@H](N)[C@@H](O)[C@@H]1O | 191%
CCN(CC)CCOc1ccc(C(=C(Cl)c2ccccc2)c2ccccc2)cc1 [clomifene] | 171% and 339% and 180%
NC(=O)[C@H]1O[C@@H](O)[C@H](O)[C@@H](O)[C@@H]1O [glucuronamide] | 162%
Nc1nc2c([nH]1)c(=O)n(CC1CC1)c(=O)n2CC1CC1 [cipamfylline] | 78.9%
CC[C@H](C)[C@H](N)C(=O)O [isoleucine] | 306%
C[C@@H](O)[C@H]1C(=O)N2C(C(=O)O)=C(S[C@@H]3CN[C@H](C(=O)Nc4cccc(C(=O)O)c4)C3)[C@H](C)[C@H]12 [ertapenem] | 105%
NC(=O)NCCC[C@H](N)C(=O)O | 232% and 218%

Structure (SMILES) | percent viability
CN1CCC[C@H]1c1cccnc1 [Nicotine] | 43.3%
OC(Cn1cncn1)(Cn1cncn1)c1ccc(F)cc1F [fluconazole] | 324% and 215%
COc1cc(C(C)=O)ccc1OCCCN1CCC(c2noc3cc(F)ccc23)CC1 [iloperidone] | 270%
C#CC(C)(CC)OC(=O)c1ccccc1C(=O)O (stereo not given) [ftalofyne] | 103%
CN(C)CCc1c[nH]c2ccc(Cn3cncn3)cc12 | 404%
O=C(O)c1cc(=O)c2ccccc2o1 [chromocarb] | 41.5%
CC(N/C(=N\C#N)Nc1ccncc1)C(C)(C)C (stereo not given) | 166%
CC[C@@H]1/C=C(\C)C[C@H](C)C[C@H](OC)[C@H]2O[C@@](O)(C(=O)C(=O)N3CCCC[C@H]3C(=O)O[C@H](/C(C)=C/[C@@H]3CC[C@H](Cl)[C@H](OC)C3)[C@H](C)[C@@H](O)CC1=O)[C@H](C)C[C@@H]2OC [Pimecrolimus] | 283%
CCOCC(O)COc1ccc(NC(=O)CC[S+](C)C)cc1 (stereo not given) [suplatast tosilate] | 226%
O=C(CCCN1CCC(O)(c2ccc(Cl)cc2)CC1)c1ccc(F)cc1 [haloperidol] | 161% and 208%
C=CCCCCCCCCC(=O)[O-].C=CCCCCCCCCC(=O)[O-].[Zn+2] | 175%
N=C(N)NCCC[C@@H](NC(=O)[C@@H]1CCCN1C(=O)[C@@H]1CSSCCC(=O)N[C@@H](Cc2ccc(O)cc2)C(=O)N[C@@H](Cc2ccccc2)C(=O)N[C@@H](CCC(N)=O)C(=O)N[C@@H](CC(N)=O)C(=O)N1)C(=O)NCC(N)=O | 288%
Cc1cnc(NC(=O)C2=C(O)c3ccccc3S(=O)(=O)N2C)s1 [meloxicam] | 189%
Nc1c2c(nc3ccccc13)CCCC2O (stereo not given) [velnacrine] | 342%
CCOC(=O)c1ccc(OCCC2CCN(c3ccc(C)nn3)CC2)cc1 [pirodavir] | 130%
Cc1cccc(C)c1NC(=O)/N=C1\CCCN1C [xilobam] | 132%
COc1cc2c(cc1OC)-c1c/c(=N\c3c(C)cc(C)cc3C)n(C)c(=O)n1CC2 [trequinsin] | 151%
CC(=O)OC[C@H]1O[C@@H](n2ccc(=O)[nH]c2=O)[C@H](OC(C)=O)[C@@H]1OC(C)=O [Uridine triacetate] | 269%
CCCCCCCCCCCCCC[n+]1ccc(C)cc1 [miripirium] | 110%
CCC(=O)O[C@]1(C(=O)CCl)[C@@H](C)C[C@H]2[C@@H]3CCC4=CC(=O)C=C[C@]4(C)[C@@]3(F)[C@@H](O)C[C@@]21C [Temovate] | 217%
